Several values for one entry are separate records, joined by “and”; a condition that tells them apart may be missing. Equal entries are not always repeated. At least one compound was matched to its structure with a doubt left.
Tests used:
[1] = tested on: polyclonal anti-digoxigenin antibody; test: DNA nanoswitch gel electrophoresis, digoxigenin-antibody dissociation; assay type: binding, Sheep; conditions: room temperature
[2] = tested on: polyclonal anti-digoxigenin antibody; test: Optical trap constant-force unbinding of digoxigenin-antibody looped linker; assay type: binding; conditions: constant force of 49±2 pN, 95% confidence band 0.9-2.0 s

With C[C@]12CC[C@H](O)C[C@H]1CC[C@@H]1[C@@H]2C[C@@H](O)[C@]2(C)[C@@H](C3=CC(=O)OC3)CC[C@]12O [digoxigenin] the “dissociation time constant (koff)” value [1] was 18.5 h and 18.5 ± 2.0 h and the characteristic lifetime [2] was 1.3 s.
